# Experimental data from publication PMC7819943, “Rice protein-binding microarrays: a tool to detect cis-acting elements near promoter regions in rice”.
# Protein sequences, listed by entry. Tags and fused reporters are not part of them.
# UniProt Q0JBA9, entry or part of it: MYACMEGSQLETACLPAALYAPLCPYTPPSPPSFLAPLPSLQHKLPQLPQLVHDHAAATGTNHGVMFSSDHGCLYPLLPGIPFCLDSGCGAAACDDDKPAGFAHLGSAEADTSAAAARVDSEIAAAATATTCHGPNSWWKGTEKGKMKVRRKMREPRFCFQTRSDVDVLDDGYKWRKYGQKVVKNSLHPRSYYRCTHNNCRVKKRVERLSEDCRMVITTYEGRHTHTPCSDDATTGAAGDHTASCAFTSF
# This is one part of the list.
# Molecular target: OsWRKY34 (Oryza sativa, UniProt Q0JBA9 1-250)
# Assay: protein-binding microarray (RPBM); PBS, 2% BSA, 51.3 ng/ul salmon testes DNA, 50 uM zinc acetate, 200 nM TF, 25 C, 1 h; high values mean tight binding
# Conditions: protein: recombinant; tags: N-terminal polyhistidine and DsRed monomer fusion (pET32a); label: CyDye5-dUTP incorporated in the synthesized complementary strand; 3' TTTTT single-stranded linker to array surface; dsDNA, one strand shown
# How it was run: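 Transcription factors were each fused at the N-terminus to a polyhistidine tag plus DsRed and expressed in E. coli BL21-CodonPlus before Ni–NTA purification. Binding to a double-stranded custom Agilent array was carried out with 200 nM protein at 25 °C for 1 h in PBS, 2% BSA, salmon testes DNA and 50 µM zinc acetate. The binding signal is per-feature fluorescence intensity, in arbitrary units, on an Axon 4000B scanner.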
row,Sequence,binding signal
1,AACCCTTAGTCTGTATATCCAACAGCTCATATCAAGGTTTCGGAGTCACCTAGTGCAG,9070 fluorescence intensity (a.u.)
2,CCTGCAGAATTATTGCAGTGTGTGTGCCAGTTCTGTTAATCGGAGTCACCTAGTGCAG,8980 fluorescence intensity (a.u.)
3,ATCATGTAATTTTTTCTTGTTCTATCAATATTTTTCACCTCGGAGTCACCTAGTGCAG,8230 fluorescence intensity (a.u.)
4,AGAGCCGCAACGGGCCAGCACATGACCCATCTGTCACCGCCGGAGTCACCTAGTGCAG,8360 fluorescence intensity (a.u.)
5,CTCCGCTCCGCGCCTCGCCTCGCCGCCTCGGCATCCGCGCCGGAGTCACCTAGTGCAG,10100 fluorescence intensity (a.u.)
6,AAATATATAGAGTTTACCCTGTTTTTAATTATTATTTTCTCGGAGTCACCTAGTGCAG,8700 fluorescence intensity (a.u.)
7,GGGAATGCCCCTAATTCAGGTCACTGTTGCCCTCTGCAGTCGGAGTCACCTAGTGCAG,8530 fluorescence intensity (a.u.)
8,TAGTTCTAAAACATACCATATCTGTATTACTCTCCATTCCCGGAGTCACCTAGTGCAG,8610 fluorescence intensity (a.u.)
9,TCTCTTTAAGAGTTTGTCACTCTTGCTCGCGGTGTTTAACCGGAGTCACCTAGTGCAG,9280 fluorescence intensity (a.u.)
10,CGCCTCGCATCACCCCTAGCCCAAGCCAACCACCCTACACCGGAGTCACCTAGTGCAG,8630 fluorescence intensity (a.u.)
11,AGCGAGCGGTATCACTTGCACCAGCTTATCCATCCTCATCCGGAGTCACCTAGTGCAG,8550 fluorescence intensity (a.u.)
12,ATAAGACGAATGGTCAAACATGTGCTAAAAAGTCAACGGTCGGAGTCACCTAGTGCAG,12900 fluorescence intensity (a.u.)
13,CTGCCCACTGCCTTTTGAGGGGTGGGGCTGCCCACCTTGACGGAGTCACCTAGTGCAG,8640 fluorescence intensity (a.u.)
14,TTTGTTGTGACGAAATGTCTTAATCACATGGATGGCGGGGCGGAGTCACCTAGTGCAG,9660 fluorescence intensity (a.u.)
15,ACCATATGTCCATTTCCCTAACACGTCTCCTATTTCACTGCGGAGTCACCTAGTGCAG,9030 fluorescence intensity (a.u.)
16,ATAAATTAAGTACCAGCCTAGCCATTTGTTTTGGTTGTTTCGGAGTCACCTAGTGCAG,8230 fluorescence intensity (a.u.)
17,GCAACACCTTTCCTTGCAACCAAAGCCAACCTTCTAGCTACGGAGTCACCTAGTGCAG,8780 fluorescence intensity (a.u.)
18,AGAACTCCCTTTGCCTGGATCTGTTTGTTCCTCGCACCATCGGAGTCACCTAGTGCAG,8560 fluorescence intensity (a.u.)
19,CGCGGGGTCGGGCCTTACTCCGCCGTCGATACTGGGAGAGCGGAGTCACCTAGTGCAG,8760 fluorescence intensity (a.u.)
20,CGCTGGTTATTCCCATCTTCTCCCGTCGTCTGTACTGTATCGGAGTCACCTAGTGCAG,9320 fluorescence intensity (a.u.)
21,CCATGTGCTCGTTTCAGCTTCTTCTACCTCCGTTTCACACCGGAGTCACCTAGTGCAG,13500 fluorescence intensity (a.u.)

# Some of the entries above, reformatted.
row	Sequence	binding signal
7	GGGAATGCCCCTAATTCAGGTCACTGTTGCCCTCTGCAGTCGGAGTCACCTAGTGCAG	8530 fluorescence intensity (a.u.)
8	TAGTTCTAAAACATACCATATCTGTATTACTCTCCATTCCCGGAGTCACCTAGTGCAG	8610 fluorescence intensity (a.u.)
9	TCTCTTTAAGAGTTTGTCACTCTTGCTCGCGGTGTTTAACCGGAGTCACCTAGTGCAG	9280 fluorescence intensity (a.u.)

# Remaining list, next part:

row,Sequence,binding signal
1,GTAGTATATTTTTTTGCTGCTGGTATGGATAATGCCTATGCGGAGTCACCTAGTGCAG,9640 fluorescence intensity (a.u.)
2,AATTTTTTTTGGCCGATAGATTATTTCTGTAAATATTTAACGGAGTCACCTAGTGCAG,8180 fluorescence intensity (a.u.)
3,TCCTGTACACCTCGAACCTCCTCTGCTTCTCTTCGGCAGTCGGAGTCACCTAGTGCAG,8260 fluorescence intensity (a.u.)
4,CCACCTCCGCCGCCGCCACCCTCCGCCGCCGCCGCCGCCACGGAGTCACCTAGTGCAG,8940 fluorescence intensity (a.u.)
5,CTTGGGTTGGGTTTTCAGTCCGGGGAATGAACTCGCTCGCCGGAGTCACCTAGTGCAG,12900 fluorescence intensity (a.u.)
6,CATCAACCTTATCATGATAACATCACGCTGACGTGTCCTTCGGAGTCACCTAGTGCAG,9570 fluorescence intensity (a.u.)
7,ACGTCAATTTGTTTTATCATTTTTAGGTATGCACTACATACGGAGTCACCTAGTGCAG,8860 fluorescence intensity (a.u.)
8,TTCTCTGTAACCGTTCAATTTTCTCATTTTCTCAGAGAACCGGAGTCACCTAGTGCAG,8320 fluorescence intensity (a.u.)
9,ATCCAACAATCTACCGGACCATTTCTTTCTTTAATTGCCACGGAGTCACCTAGTGCAG,9420 fluorescence intensity (a.u.)
10,CCGCCGCCGTTCCGTTTTTTCTCTCTCGCGCCGCCGCCAGCGGAGTCACCTAGTGCAG,17300 fluorescence intensity (a.u.)
11,TGTAGAGGTTGGTGGGTGGGTCGATTGGCTTAGCGAGAGGCGGAGTCACCTAGTGCAG,13800 fluorescence intensity (a.u.)
12,TTTATATCATATTTCACGCGTACATTTTTCAAACTGTTAACGGAGTCACCTAGTGCAG,9570 fluorescence intensity (a.u.)
13,AGGTCGAGATGGAGTTCCTTGGAGGCATGCCGAAGGACGTCGGAGTCACCTAGTGCAG,8270 fluorescence intensity (a.u.)
14,GAAATATAACCCTTATCGCTCAGACTCATTGGTATCGCTGCGGAGTCACCTAGTGCAG,8450 fluorescence intensity (a.u.)
15,CCATACTTCCTATTTCTATATTCGAACTGGCTAGCGTTGACGGAGTCACCTAGTGCAG,10100 fluorescence intensity (a.u.)
16,GAGCATCGAGCTTGGTGGTGGTGGTGGTGGCGAGGCGATGCGGAGTCACCTAGTGCAG,10300 fluorescence intensity (a.u.)
17,CTATATTTCTATTTTACCTTTCTAACTTATTGTGTTTTTTCGGAGTCACCTAGTGCAG,11600 fluorescence intensity (a.u.)
18,GAACCAACTTATACTACAATTCTAAGAACATCTTTTCCTTCGGAGTCACCTAGTGCAG,8250 fluorescence intensity (a.u.)
19,TAAACAATGATCGCGATGTCCGGTAGCTAATTACTATTTTCGGAGTCACCTAGTGCAG,10500 fluorescence intensity (a.u.)
20,ATTTTGTTGTCGCACCTATATCATCACATGCCACACTTTTCGGAGTCACCTAGTGCAG,12700 fluorescence intensity (a.u.)
21,TCTCACCTGCCTCTCCATCCCATCTCCTATACAACAGTTCCGGAGTCACCTAGTGCAG,9160 fluorescence intensity (a.u.)
